Reference: patent publication US11033607B2, “Peptides and methods for preventing ischemic tissue injury” (University Health Network, priority 2012, dated 2021)

Experiment: Body weight, heart/body weight ratio and non-fasting blood glucose during 14-day peptide infusion
Type: in vivo, mouse
Conditions: for heart/body weight ratio: after 14 days of infusion; for body weight: day 1 vs day 14 of peptide infusion

H-HAEGTFTSDVSSYLEGQAAKEFIAWLVKGR-NH2 [GLP-1(7-36)^amide]
heart/body weight ratio: did not significantly affect
body weight: did not significantly affect

H-FIAWLVKGR-NH2 (C-terminal amide; Human peptide fragments) [GLP-1(28-36)^amide]
heart/body weight ratio: did not significantly affect
body weight: did not significantly affect
